# Data: the supplement of paper PMC12819154, “High-throughput peptide-centric local stability assay extends protein–ligand identification to membrane proteins, tissues and bacteria” (Nature Structural & Molecular Biology, 2025)
# Amino acid sequences for entries named in this document (tags omitted). A change or cut given only in a name is not applied to a line headed by its entry.
# UniProt Q969T4: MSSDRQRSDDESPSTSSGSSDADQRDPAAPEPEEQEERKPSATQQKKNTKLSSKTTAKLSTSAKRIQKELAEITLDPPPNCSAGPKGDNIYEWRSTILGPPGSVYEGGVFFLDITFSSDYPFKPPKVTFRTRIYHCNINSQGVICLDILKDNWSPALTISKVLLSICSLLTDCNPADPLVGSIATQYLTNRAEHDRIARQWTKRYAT
# UniProt Q96GC6: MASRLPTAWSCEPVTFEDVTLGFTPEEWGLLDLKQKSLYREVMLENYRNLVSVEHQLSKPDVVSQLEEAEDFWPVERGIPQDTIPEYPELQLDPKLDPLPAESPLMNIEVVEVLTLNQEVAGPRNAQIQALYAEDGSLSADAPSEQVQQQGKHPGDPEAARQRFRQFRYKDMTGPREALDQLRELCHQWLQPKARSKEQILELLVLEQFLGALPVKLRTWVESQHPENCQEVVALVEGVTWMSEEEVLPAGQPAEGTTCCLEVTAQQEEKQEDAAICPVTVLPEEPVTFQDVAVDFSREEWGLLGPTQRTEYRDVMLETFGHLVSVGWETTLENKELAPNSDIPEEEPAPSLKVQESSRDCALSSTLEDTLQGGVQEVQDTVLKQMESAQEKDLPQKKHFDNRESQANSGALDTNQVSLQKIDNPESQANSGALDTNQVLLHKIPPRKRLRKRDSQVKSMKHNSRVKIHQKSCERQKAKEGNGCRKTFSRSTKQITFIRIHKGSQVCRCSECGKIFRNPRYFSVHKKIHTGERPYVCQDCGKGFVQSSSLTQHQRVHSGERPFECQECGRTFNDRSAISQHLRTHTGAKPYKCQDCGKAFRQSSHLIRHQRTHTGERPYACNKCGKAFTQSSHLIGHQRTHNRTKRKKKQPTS
# UniProt Q92834: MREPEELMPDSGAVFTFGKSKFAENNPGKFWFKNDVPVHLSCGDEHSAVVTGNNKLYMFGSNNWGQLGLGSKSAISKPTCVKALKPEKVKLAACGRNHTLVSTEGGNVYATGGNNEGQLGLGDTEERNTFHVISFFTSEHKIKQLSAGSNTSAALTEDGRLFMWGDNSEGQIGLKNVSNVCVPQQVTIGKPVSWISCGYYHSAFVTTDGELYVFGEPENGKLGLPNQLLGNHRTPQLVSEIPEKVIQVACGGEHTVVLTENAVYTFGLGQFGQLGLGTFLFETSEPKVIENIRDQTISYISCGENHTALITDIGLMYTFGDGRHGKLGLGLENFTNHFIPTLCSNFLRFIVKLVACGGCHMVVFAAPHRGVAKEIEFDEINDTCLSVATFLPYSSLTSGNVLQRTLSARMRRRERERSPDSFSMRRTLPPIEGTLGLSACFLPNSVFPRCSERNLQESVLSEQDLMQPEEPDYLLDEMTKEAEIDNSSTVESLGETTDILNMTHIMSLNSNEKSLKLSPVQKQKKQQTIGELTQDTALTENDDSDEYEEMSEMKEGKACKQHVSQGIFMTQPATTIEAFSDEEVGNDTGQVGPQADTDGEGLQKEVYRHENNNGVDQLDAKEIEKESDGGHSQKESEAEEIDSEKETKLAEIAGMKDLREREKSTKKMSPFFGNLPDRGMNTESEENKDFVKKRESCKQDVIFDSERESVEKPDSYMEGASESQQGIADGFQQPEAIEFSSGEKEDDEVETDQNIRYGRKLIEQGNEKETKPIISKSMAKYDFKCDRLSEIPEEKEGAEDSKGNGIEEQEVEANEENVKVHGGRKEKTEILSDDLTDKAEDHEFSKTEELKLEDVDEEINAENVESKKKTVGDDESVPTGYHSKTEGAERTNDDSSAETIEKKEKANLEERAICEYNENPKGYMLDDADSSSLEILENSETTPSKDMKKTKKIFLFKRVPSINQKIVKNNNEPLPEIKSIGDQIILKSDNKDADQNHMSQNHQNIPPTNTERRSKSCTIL
# UniProt Q96G75, whole entry: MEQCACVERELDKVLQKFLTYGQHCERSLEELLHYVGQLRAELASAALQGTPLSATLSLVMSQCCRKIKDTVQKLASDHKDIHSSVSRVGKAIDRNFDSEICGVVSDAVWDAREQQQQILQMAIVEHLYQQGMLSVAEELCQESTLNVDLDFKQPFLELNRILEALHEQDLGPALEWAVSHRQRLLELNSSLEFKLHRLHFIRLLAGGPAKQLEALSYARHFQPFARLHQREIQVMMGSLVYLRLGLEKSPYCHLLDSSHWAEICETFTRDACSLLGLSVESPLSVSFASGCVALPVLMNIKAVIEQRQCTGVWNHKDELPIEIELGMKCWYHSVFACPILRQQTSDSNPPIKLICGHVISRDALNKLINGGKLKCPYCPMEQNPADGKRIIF
# UniProt Q96AH0: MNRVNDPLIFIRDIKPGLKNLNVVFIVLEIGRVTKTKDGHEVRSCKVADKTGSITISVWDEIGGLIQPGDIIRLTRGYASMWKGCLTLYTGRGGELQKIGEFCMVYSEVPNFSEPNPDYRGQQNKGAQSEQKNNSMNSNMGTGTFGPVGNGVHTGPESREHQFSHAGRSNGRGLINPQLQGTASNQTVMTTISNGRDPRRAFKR
# UniProt Q92851: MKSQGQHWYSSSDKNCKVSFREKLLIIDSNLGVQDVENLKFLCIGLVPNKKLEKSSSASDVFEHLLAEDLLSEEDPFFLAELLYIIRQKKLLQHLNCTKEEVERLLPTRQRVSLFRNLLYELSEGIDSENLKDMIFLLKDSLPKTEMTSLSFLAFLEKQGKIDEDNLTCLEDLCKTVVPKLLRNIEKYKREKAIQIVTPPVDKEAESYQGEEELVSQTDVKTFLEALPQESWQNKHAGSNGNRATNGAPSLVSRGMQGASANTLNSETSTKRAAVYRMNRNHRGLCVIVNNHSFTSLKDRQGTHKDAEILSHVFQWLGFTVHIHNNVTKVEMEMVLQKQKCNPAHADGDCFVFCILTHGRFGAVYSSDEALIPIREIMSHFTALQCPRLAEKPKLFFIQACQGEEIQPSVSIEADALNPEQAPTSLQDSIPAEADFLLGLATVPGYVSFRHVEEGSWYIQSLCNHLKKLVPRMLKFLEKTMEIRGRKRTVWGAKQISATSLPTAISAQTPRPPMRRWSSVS
# UniProt Q96C90: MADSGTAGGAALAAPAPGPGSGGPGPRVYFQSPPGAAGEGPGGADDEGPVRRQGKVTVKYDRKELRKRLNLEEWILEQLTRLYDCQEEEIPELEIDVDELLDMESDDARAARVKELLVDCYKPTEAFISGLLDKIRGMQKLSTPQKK
# UniProt Q96CN9: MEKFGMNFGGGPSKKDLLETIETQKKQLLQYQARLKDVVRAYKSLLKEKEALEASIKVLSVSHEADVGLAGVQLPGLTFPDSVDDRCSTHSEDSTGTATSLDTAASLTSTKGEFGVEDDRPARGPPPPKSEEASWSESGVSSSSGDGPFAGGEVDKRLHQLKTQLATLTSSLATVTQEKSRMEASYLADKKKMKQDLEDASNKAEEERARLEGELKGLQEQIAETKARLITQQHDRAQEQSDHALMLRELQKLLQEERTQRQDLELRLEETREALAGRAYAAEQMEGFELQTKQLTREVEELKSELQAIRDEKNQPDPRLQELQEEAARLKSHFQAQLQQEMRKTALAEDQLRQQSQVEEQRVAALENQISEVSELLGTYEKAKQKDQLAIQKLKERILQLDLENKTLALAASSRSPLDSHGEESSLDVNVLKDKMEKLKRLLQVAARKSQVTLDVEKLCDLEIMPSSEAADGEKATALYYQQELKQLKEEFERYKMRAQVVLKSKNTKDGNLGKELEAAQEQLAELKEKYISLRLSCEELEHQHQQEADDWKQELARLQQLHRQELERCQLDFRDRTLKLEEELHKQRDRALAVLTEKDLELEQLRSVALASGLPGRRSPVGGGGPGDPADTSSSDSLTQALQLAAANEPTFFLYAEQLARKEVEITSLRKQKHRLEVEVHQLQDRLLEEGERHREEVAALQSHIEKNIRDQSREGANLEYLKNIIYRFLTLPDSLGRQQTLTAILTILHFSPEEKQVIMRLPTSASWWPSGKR
# UniProt Q92979: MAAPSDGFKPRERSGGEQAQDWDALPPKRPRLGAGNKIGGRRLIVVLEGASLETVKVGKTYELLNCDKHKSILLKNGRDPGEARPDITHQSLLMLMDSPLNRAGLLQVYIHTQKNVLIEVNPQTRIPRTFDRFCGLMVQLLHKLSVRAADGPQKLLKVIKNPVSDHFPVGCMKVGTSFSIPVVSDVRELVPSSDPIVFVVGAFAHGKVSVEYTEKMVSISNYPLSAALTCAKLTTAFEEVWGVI
# UniProt Q96E35: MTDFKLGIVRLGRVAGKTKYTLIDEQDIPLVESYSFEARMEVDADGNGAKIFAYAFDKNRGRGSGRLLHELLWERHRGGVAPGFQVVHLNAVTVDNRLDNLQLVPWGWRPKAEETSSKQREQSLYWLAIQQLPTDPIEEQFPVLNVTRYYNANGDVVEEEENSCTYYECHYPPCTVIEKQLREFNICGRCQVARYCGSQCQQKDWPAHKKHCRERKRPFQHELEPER
# UniProt Q92994: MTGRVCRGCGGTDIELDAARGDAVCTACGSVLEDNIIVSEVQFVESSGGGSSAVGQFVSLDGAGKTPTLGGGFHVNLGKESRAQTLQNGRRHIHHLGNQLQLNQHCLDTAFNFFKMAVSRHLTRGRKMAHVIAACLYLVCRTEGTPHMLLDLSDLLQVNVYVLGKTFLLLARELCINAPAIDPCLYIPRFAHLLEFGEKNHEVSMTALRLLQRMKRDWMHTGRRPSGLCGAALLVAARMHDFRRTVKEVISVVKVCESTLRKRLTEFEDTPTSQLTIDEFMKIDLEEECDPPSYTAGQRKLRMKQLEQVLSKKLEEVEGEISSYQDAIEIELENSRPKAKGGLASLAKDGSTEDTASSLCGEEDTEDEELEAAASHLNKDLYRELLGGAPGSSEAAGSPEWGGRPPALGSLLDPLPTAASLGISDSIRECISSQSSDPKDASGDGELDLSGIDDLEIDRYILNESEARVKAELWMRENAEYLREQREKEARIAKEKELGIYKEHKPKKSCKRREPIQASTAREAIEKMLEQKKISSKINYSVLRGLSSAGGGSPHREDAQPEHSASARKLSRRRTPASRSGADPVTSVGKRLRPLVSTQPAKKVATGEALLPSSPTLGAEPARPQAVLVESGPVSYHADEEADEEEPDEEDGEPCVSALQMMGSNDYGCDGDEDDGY
# UniProt Q96CP6, whole entry: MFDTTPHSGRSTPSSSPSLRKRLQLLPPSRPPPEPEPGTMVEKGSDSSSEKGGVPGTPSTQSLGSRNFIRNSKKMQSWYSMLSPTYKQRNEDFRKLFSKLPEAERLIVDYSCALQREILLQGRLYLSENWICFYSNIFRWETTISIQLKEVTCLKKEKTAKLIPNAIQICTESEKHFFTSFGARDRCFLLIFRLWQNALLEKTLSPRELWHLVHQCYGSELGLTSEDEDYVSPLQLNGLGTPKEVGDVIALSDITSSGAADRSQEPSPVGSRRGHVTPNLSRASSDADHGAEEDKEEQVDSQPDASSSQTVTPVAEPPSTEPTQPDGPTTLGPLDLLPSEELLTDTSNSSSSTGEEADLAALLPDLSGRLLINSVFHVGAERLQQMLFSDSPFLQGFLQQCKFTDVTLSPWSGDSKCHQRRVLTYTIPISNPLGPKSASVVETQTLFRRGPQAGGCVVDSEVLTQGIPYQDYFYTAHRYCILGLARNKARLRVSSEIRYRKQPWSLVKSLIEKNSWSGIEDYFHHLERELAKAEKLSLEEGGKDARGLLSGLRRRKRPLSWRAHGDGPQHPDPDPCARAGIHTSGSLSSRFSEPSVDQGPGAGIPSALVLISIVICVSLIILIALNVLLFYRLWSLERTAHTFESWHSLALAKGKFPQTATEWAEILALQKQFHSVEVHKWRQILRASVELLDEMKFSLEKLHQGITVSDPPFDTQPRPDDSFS
# UniProt Q96D71: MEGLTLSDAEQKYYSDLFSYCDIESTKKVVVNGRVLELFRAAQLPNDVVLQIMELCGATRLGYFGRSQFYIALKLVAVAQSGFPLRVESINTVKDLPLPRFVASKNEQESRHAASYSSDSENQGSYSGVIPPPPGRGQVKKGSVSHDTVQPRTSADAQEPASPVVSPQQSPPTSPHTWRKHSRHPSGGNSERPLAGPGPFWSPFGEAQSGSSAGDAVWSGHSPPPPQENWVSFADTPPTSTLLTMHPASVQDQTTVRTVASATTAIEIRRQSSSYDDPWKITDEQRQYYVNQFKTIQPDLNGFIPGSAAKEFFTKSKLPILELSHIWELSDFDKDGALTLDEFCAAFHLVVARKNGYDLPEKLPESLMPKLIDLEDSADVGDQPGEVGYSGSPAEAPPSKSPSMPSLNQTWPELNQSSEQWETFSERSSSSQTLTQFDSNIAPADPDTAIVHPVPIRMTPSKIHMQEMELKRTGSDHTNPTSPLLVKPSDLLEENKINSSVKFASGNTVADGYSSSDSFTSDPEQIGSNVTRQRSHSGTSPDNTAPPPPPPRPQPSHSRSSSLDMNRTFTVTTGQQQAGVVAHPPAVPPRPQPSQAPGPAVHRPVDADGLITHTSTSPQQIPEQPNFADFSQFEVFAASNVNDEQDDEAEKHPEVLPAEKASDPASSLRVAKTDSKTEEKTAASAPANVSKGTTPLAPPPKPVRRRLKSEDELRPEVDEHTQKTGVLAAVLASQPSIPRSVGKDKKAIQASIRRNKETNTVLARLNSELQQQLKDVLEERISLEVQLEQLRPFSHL
# Some of the results follow. Most values lie at the level of the controls, where differences are scatter.
# Compound: CN[C@@H]1C[C@H]2O[C@@](C)([C@@H]1OC)n1c3ccccc3c3c4c(c5c6ccccc6n2c5c31)C(=O)NC4 [staurosporine]
# Test: log2 fold change of tryptic peptide abundance, ligand vs vehicle (limited proteolysis) (log2 ratio); higher = more trypsin-susceptible (destabilized)
# Conditions: ligand concentration: 20 uM; sample: K562 cleared lysate; digestion: 4 min, 22 C (HT-PELSA RT4min, Orbitrap Astral)
row,Target,log2 fold change
1,"UBE2E3 (peptide sequence: KPSATQQKK, peptide start residue: 39) (UniProt Q969T4)",0.319
2,"UniProt Q96CX3 (peptide sequence: SSLTQHQR, peptide start residue: 35)",-0.202
3,"ERCC4 (peptide sequence: LTLLTLHFPR, peptide start residue: 788) (UniProt Q92889)",-0.36
4,"UniProt Q96GC6 (peptide sequence: ESQANSGALDTNQVSLQK, peptide start residue: 404)",-0.676
5,"RIT1 (peptide sequence: QVTKEEGLALAR, peptide start residue: 143) (UniProt Q92963)",0.103
6,"RPGR (peptide sequence: TNDDSSAETIEKK, peptide start residue: 891) (UniProt Q92834)",-0.498
7,"RMND5B (peptide sequence: CWYHSVFACPILR, peptide start residue: 330) (UniProt Q96G75)",-0.0895
8,"CMBL (peptide sequence: NLIEWLNK, peptide start residue: 236) (UniProt Q96DG6)",-0.167
9,"NABP1 (peptide sequence: EHQFSHAGR, peptide start residue: 160) (UniProt Q96AH0)",0.0245
10,"PDXP (peptide sequence: AVPGAPELLER, peptide start residue: 36) (UniProt Q96GD0)",0.213
11,"ACD (peptide sequence: GAQEPCSVWEPPKR, peptide start residue: 394) (UniProt Q96AP0)",0.428
12,"MRPL24 (peptide sequence: GTMIPSEAPLLHR, peptide start residue: 106) (UniProt Q96A35)",0.191
13,"CASP10 (peptide sequence: DMIFLLK, peptide start residue: 133) (UniProt Q92851)",-0.152
14,"SIPA1 (peptide sequence: LGFEVDAEGFVTHVER, peptide start residue: 698) (UniProt Q96FS4)",-0.65
15,"PPP1R14B (peptide sequence: VKELLVDCYKPTEAFISGLLDK, peptide start residue: 113) (UniProt Q96C90)",0.154
16,"UniProt Q969V6 (peptide sequence: GAPPMDSSYAK, peptide start residue: 251)",-0.283
17,"GCC1 (peptide sequence: MEASYLADK, peptide start residue: 182) (UniProt Q96CN9)",-0.358
18,"MRPL53 (peptide sequence: VQFCPFEK, peptide start residue: 18) (UniProt Q96EL3)",0.18
19,"EMG1 (peptide sequence: AAPSDGFKPR, peptide start residue: 2) (UniProt Q92979)",0.0675

# Nothing new here: an excerpt of the list.
row,Target,log2 fold change
4,"UniProt Q96GC6 (peptide sequence: ESQANSGALDTNQVSLQK, peptide start residue: 404)",-0.676
5,"RIT1 (peptide sequence: QVTKEEGLALAR, peptide start residue: 143) (UniProt Q92963)",0.103

# (continued)

row,Target,log2 fold change
1,"CHMP4C (peptide sequence: SVHENMDLNK, peptide start residue: 118) (UniProt Q96CF2)",0.625
2,"ZMYND19 (peptide sequence: LDNLQLVPWGWRPK, peptide start residue: 98) (UniProt Q96E35)",-0.133
3,"BRF1 (peptide sequence: EDAQPEHSASAR, peptide start residue: 557) (UniProt Q92994)",1.28
4,"JARID2 (peptide sequence: KENGPTLSTISALLDELRDTELR, peptide start residue: 1072) (UniProt Q92833)",-0.419
5,"GRAMD1A (peptide sequence: LLINSVFHVGAER, peptide start residue: 370) (UniProt Q96CP6)",0.177
6,"SYAP1 (peptide sequence: FVEEQHTKK, peptide start residue: 111) (UniProt Q96A49)",0.497
7,"REPS1 (peptide sequence: LVAVAQSGFPLR, peptide start residue: 75) (UniProt Q96D71)",0.425
8,"UniProt Q96DY7 (peptide sequence: TGSLPHSSEQLLGHK, peptide start residue: 577)",0.216
9,"RBM33 (peptide sequence: GTVVTPVQVPLLPVPSQPR, peptide start residue: 393) (UniProt Q96EV2)",-0.347
10,"KIAA1191 (peptide sequence: ATHVIMNSLITK, peptide start residue: 101) (UniProt Q96A73)",0.172
11,"UPF1 (peptide sequence: IPSEQEQLR, peptide start residue: 245) (UniProt Q92900)",0.272
12,"UniProt Q96DF8 (peptide sequence: DPFSQALSR, peptide start residue: 254)",0.177
13,"UniProt Q92879 (peptide sequence: FADTQKDKEQK, peptide start residue: 185)",-0.599
14,"EVI5L (peptide sequence: LQLQELSDTWQAHLAR, peptide start residue: 527) (UniProt Q96CN4)",-0.871
15,"MRPL48 (peptide sequence: TKPTHGIGK, peptide start residue: 50) (UniProt Q96GC5)",0.0654
16,"OSBP2 (peptide sequence: KVTGVVSDSQGK, peptide start residue: 730) (UniProt Q969R2)",0.537
17,"GNPNAT1 (peptide sequence: VEDVVVSDECR, peptide start residue: 119) (UniProt Q96EK6)",-0.00237
18,"GTPBP3 (peptide sequence: KPVSIVSPEPGTTR, peptide start residue: 272) (UniProt Q969Y2)",0.319
